Results on 40 sequences are retold here after PMC7862700.

The chains behind the UniProt entries cited, without tags or fusion partners. Where a name states a change or a piece, a line headed by the entry shows the natural chain unless it says otherwise.
UniProt P50549: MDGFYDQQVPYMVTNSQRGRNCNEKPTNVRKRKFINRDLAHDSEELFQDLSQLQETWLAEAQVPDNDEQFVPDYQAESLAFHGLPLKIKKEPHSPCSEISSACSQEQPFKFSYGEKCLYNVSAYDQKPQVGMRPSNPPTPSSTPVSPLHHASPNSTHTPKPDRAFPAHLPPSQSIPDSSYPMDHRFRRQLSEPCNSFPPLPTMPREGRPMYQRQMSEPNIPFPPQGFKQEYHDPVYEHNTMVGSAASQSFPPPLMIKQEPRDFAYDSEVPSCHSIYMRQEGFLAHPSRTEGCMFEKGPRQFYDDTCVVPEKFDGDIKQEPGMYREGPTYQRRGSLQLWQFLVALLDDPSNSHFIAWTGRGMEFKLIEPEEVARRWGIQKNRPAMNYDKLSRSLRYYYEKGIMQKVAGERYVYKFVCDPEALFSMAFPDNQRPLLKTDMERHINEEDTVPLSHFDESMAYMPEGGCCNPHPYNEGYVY

Assay in all cases: DAPPL (digital affinity profiling via proximity ligation, sequencing)
Conditions in all cases: 10 mM Tris-HCl pH 7.5, 50 mM NaCl, 1 mM DTT, 4% glycerol, room temperature, 30 min; GST-TFs on glutathione beads, 16-mer random dsDNA library, 0.1% …; high values mean tight binding; double strand, one strand shown; scale: fold enrichment (6-mer frequency, TF over GST control)

One assay concerns the target T1, ETV4 (UniProt P43268).
T1 sequence: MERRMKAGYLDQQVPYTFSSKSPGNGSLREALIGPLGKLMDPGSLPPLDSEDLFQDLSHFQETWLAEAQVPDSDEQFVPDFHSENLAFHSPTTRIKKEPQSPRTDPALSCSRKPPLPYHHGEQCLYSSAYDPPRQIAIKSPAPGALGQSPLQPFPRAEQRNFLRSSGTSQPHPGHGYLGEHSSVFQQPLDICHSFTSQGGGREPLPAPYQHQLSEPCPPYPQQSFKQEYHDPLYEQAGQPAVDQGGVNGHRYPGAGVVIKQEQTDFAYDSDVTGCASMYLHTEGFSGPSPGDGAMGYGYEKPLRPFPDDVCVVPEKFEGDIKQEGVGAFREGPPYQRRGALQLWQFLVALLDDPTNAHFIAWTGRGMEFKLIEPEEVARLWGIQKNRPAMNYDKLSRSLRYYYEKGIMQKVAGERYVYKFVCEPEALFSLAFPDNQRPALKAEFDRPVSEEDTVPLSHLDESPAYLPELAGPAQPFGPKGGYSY

The target of a further assay is ETV1 (UniProt P50549).
The next assay deals with T2, ERF (UniProt P50548).
T2 sequence: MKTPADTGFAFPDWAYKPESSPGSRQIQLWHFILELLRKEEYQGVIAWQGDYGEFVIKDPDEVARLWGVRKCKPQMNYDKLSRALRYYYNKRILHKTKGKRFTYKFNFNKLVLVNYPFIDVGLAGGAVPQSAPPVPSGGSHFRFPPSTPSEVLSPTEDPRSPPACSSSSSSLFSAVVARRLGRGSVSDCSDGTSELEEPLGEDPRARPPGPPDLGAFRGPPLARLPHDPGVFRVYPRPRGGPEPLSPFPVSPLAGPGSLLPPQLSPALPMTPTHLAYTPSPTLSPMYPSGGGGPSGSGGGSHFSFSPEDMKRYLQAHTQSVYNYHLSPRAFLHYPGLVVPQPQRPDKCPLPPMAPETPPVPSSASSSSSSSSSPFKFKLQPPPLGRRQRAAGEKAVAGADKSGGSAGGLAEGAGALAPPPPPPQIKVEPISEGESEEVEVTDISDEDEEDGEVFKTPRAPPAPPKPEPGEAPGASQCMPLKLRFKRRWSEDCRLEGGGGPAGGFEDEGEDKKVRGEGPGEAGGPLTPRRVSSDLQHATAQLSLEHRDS

The list shows a part of the results, in another mix than the full data. For some of these results: At the low end of the ranking the order means little. Some of the results follow. For some of these results: Construct or isoform of the protein are uncertain.

In the case of ACTAAT, the binding signal amounted to 1.31 with ETV4 and 1.3 in the assay with ETV1.
The like results for AATAGT were, in that order, 1.18 and 1.17.
Taken in the same sequence, the figures for CTTAGT were 1.23 and 1.17.
CACACG: the binding signal in the assay with ETV4 turned out to be 1.11; with ETV1, 1.16.
As for CGCTGG, the figures for the binding signal with ETV4 and in the assay with ETV1 were 1.08 and 0.94, respectively.
For the sequence ACCTCC, the figures for the binding signal in the assay with ETV4 and with ETV1 were 1.54 and 1.4, respectively.
The like results for GCCGCT were, in that order, 1.08 and 1.15.
As for AAACAC, the binding signal came to 1.3 in the assay with ETV4 and 1.26 with ETV1.
In the case of TGCTCC, the binding signal with ETV4 is 1.48; with ETV1, 1.31.
Turning to GGACAT, the binding signal with ETV4 and with ETV1 was 1.23 in each case.
For TTACAG, the figures for the binding signal with ETV4 and in the assay with ETV1 were 1.16 and 1.2, respectively.
CACCGC: the binding signal with ETV4 came to 1.08; with ETV1 it was 1.
In the case of TGCATA, the results for the binding signal with ETV4 and with ETV1 were 1.16 and 1.07, respectively.
As to TATGTC, the binding signal with ETV4 stood at 1.1; in the assay with ETV1, 1.05.
For GTGTTC, the figures for the binding signal with ETV4 and with ETV1 were 1.07 and 1.14, respectively.
AACATT: the results for the binding signal in the assay with ETV4 and in the assay with ETV1 were 1.23 and 1.29, respectively.
CAAACA: the binding signal with ETV4 and with ETV1 was 1.09 throughout.
As for ACCTCT, the binding signal in the assay with ETV4 came to 1.27; with ETV1, 1.3.
Regarding CTTTGC, the binding signal with ETV4 was 1.43; in the assay with ETV1 it was 1.35.
For AAATAC, the figures for the binding signal with ETV4 and with ETV1 were 1.36 and 1.39, respectively.
On to TGTCCG, for which the binding signal with ETV4 came to 1.46; in the assay with ETV1, 1.6.
Consider ATAGTT, for which the values for the binding signal with ETV4 and with ETV1 were 1.24 and 1.11, respectively.
The like results for CCCAAC were, in that order, 1.22 and 1.13.
As to TGATAT, the results for the binding signal with ETV4 and in the assay with ETV1 were 1.06 and 0.999, respectively.
Take TGGTAA: the binding signal in the assay with ETV4 turned out to be 1.23; with ETV1, 1.27.
For TTCACG, the binding signal is 1.33 in the assay with ETV4 and 1.32 with ETV1.
Taken in the same sequence, the figures for ACCCAA were 1.04 and 0.946.
As to AAAGTT, the binding signal in the assay with ETV4 was determined as 1.1; with ETV1 it was 1.07.
For AAGAAC, the binding signal with ETV4 worked out at 1.18; with ETV1 it was 1.22.
As for AGTCTC, the values for the binding signal with ETV4 and with ETV1 were 1.01 and 0.935, respectively.
Taken in the same sequence, the figures for TGGCTG were 1.02 and 0.947.
TGCGCA: the binding signal turned out to be 1.11 with ETV4 and 1.07 with ETV1.
Consider AGTTAA, for which the binding signal was determined as 1.05 with ETV4 and 0.988 with ETV1.
As to AGCATT, the binding signal in the assay with ETV4 stood at 1.11; with ETV1, 1.13.
Take TTCGTC: the binding signal in the assay with ETV4 and with ETV1 was 1.26 throughout.
Turning to CGTCAC, the figures for the binding signal in the assay with ETV4, with ETV1 and with ERF were 1.25, 1.2 and 1.15, respectively.
GGTATC: the binding signal with ETV4 is 1.03; with ETV1, 1.1; with ERF it was 0.997.
As for CTGCGC, the binding signal in the assay with ETV4 was determined as 1.45; with ETV1, 1.58; with ERF it was 1.34.
As to CCCCGA, the binding signal was 1.16 in the assay with ETV4, 0.98 in the assay with ETV1 and 1.15 in the assay with ERF.
Taken in the same sequence, the figures for AACGAT were 1.18, 1.19 and 1.29.
